PubChem BioAssay AID1053208 | Peter MacCallum Cancer Centre | 2014
In all, the deposit lists about 17,000 reagents; shown is an unselected part. In the full data, 788 (4.7%) were called active. 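Calls rest on z-score classes alone; an extra cut-off of viability at most 70% of control was not applied to them.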 A number with no mark means an inactive call. The numbers tell different reagents against one gene apart. Further read-outs or replicates are left out here. No sequences are given here.

Screen: 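Synthetic lethal interactions between gene loss and doxorubicin in osteosarcoma cells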 (primary screen)
Cell system: mouse osteosarcoma cells, early-passage culture from an engineered mouse model of fibroblastic bone tumour
Knock-down reagent: siRNA pool against mouse genes, 40 nM
Timing: about 120 h (48 h before drug, then 72 h with drug)
Challenge: doxorubicin 100 nM for 72 h, roughly 30-40% inhibitory dose
Detection: 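Luminescent ATP signal taken as viability with or without 100 nM doxorubicin for 72 h; mean of two wells set against non-targeting siRNA and turned into robust z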
Reading the numbers: viability z-score with doxorubicin: higher = more viable cells under doxorubicin; viability z-score without drug: higher = more viable cells with knock-down alone
Hit rule: 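Called active if knock-down leaves viability unchanged without drug (z within -2 to 2) but lowers it with doxorubicin (z at or under -2)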

target gene,pool no.,combined z-score class,viability z-score with doxorubicin,viability z-score without drug
"Sntb1 (syntrophin, basic 1)",1,no change with or without drug,0.79,-0.51
Ctrb1 (chymotrypsinogen B1),1,no change with or without drug,-0.45,1.52
Bach2,1,high cell count with and without drug,2.25,3.04
9130230L23Rik (RIKEN cDNA 9130230L23 gene),1,no change with or without drug,1.12,1.35
Or8b54 (olfactory receptor family 8 subfamily B member 54),1,no change with or without drug,-1.8,-1.69
Ccdc174 (coiled-coil domain containing 174),1,no change with or without drug,0.67,0.84
Mtmr12 (myotubularin related protein 12),1,no change with or without drug,1.91,0.84
Spsb1 (splA/ryanodine receptor domain and SOCS box containing 1),1,low cell count with doxorubicin only (active),-3.15,1.85
Lsamp (limbic system-associated membrane protein),1,no change with or without drug,0,0
Or2a5 (olfactory receptor family 2 subfamily A member 5),1,no change with or without drug,0.45,-0.67
Rimoc1 (RAB7A interacting MON1-CCZ1 complex subunit 1),1,no change with or without drug,1.57,1.85
Pnliprp1 (pancreatic lipase related protein 1),1,no change with or without drug,0.9,0.17
Pp2d1 (protein phosphatase 2C-like domain containing 1),1,high cell count without drug only,-1.91,2.02
"Ms4a13 (membrane-spanning 4-domains, subfamily A, member 13)",1,high cell count without drug only,1.35,2.87
Nim1k (NIM1 serine/threonine protein kinase),1,no change with or without drug,0.45,-0.17
Npsr1 (neuropeptide S receptor 1),1,no change with or without drug,0.79,0.51

Entries above whose gene name starts with M or m (2):
target gene,pool no.,combined z-score class,viability z-score with doxorubicin,viability z-score without drug
Mtmr12 (myotubularin related protein 12),1,no change with or without drug,1.91,0.84
"Ms4a13 (membrane-spanning 4-domains, subfamily A, member 13)",1,high cell count without drug only,1.35,2.87

More records follow:
target gene,pool no.,combined z-score class,viability z-score with doxorubicin,viability z-score without drug
Eola1 (endothelium and lymphocyte associated ASCH domain 1),1,no change with or without drug,0.22,0.34
Or51ag1 (olfactory receptor family 51 subfamily AG member 1),1,no change with or without drug,-0.79,-1.69
Pcdha1 (protocadherin alpha 1),1,no change with or without drug,-1.57,-0.84
"Psmd4 (proteasome (prosome, macropain) 26S subunit, non-ATPase, 4)",1,no change with or without drug,0,-0.51
Zfhx4 (zinc finger homeodomain 4),1,no change with or without drug,-0.67,0.17
Syt16 (synaptotagmin XVI),1,no change with or without drug,-0.45,-0.17
Il27 (interleukin 27),1,no change with or without drug,0.34,1.18
"Sugt1 (SGT1, suppressor of G2 allele of SKP1 (S. cerevisiae))",1,no change with or without drug,-1.8,-0.51
Gbp6 (guanylate binding protein 6),1,no change with or without drug,-0.67,-0.51
Ifnz (interferon zeta),1,no change with or without drug,-1.46,-1.18
Or5p60 (olfactory receptor family 5 subfamily P member 60),1,no change with or without drug,-0.67,-0.84
Tram1 (translocating chain-associating membrane protein 1),1,no change with or without drug,0,0.51
Phc1 (polyhomeotic 1),1,no change with or without drug,0.22,-0.84
Fryl (FRY like transcription coactivator),1,no change with or without drug,0.9,-0.17
Fryl (FRY like transcription coactivator),2,high cell count with doxorubicin only,2.36,1.69
Or4p19 (olfactory receptor family 4 subfamily P member 19),1,low cell count with doxorubicin only (active),-2.7,-1.52
Or5w22 (olfactory receptor family 5 subfamily W member 22),1,low cell count without drug only,-1.01,-2.19
Kif16b (kinesin family member 16B),1,no change with or without drug,0.34,-0.84
